This is one part of the list. The main result of the screen is listed elsewhere. These columns were measured beside it and carry no call. Most of these compounds were active or inconclusive in the main read-out, so they are no random draw. Potencies come from curve fits of mixed quality, noted in brackets.
Test: qHTS Assay for Lipid Storage Modulators in Drosophila S3 Cells;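 for cell number change: cells counted by Cell Tracker Red CMTPX staining in the red channel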
Conditions: BODIPY lipid droplet fluorescence, 18-24 h; for cell number change: measured here: cell count max response, cells fed with added oleic acid
Method in brief: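 Drosophila S3 cells got compounds at several concentrations plus oleic acid (400 uM solution). Laser-scanning cytometry with 488 nm excitation read lipid droplets at 500-530 nm and cells at 575-640 nm. Percent activity was relative to 20 uM Triacsin C.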

[1] = measured here: cell number channel AC50, cells fed with added oleic acid
[2] = measured here: lipid fluorescence (Fed channel) AC50, cells fed with added oleic acid

SMILES | cell number change | AC50 [1] | AC50 [2]
CCCNC(=O)NC(=O)CSc1nnc(C)n1N | -31.9% | 0.0058 µM [falling, full curve, poor fit] | –
CCCOc1ccc(/C=N/Nc2cc(N3CCOCC3)ncn2)c(O)c1 | -23.9% | – | –
CCn1cc(C(=O)NCCN(CC(C)C)CC(C)C)c(=O)c2cc(S(=O)(=O)N3CCOCC3)ccc21 | – | – | 9.2 µM [falling, partial curve]
CN(C)S(=O)(=O)c1ccc(NC(=O)COc2cccc3c2OC(C)(C)C3)cc1 | 71.9% | 29.1 µM [rising, single point] | –
COc1ccc(NC(=S)N/N=C2/CCCc3c(C)cc(C)cc32)cc1 | 43.9% | 0.411 µM [rising, full curve] | 0.651 µM [rising, full curve]
Cc1ccc(CN2CCc3c(OCC(=O)Nc4cc(C)ccc4C)cccc3C2=O)cc1 | 8.31% | – | –
Cn1c(SCC(=O)c2ccc3c(c2)OCO3)nnc1-c1ccccn1 | -13.4% | – | 1.46 µM [rising, partial curve, poor fit]
CCC(C)(C)n1nnnc1C(c1cc2cc(OC)c(OC)cc2[nH]c1=O)N1CCc2ccccc21 (stereo not drawn) | -4.27% | – | –
CCOc1ccccc1NC(=O)Cn1nnc(C(=O)Nc2ccccc2Cl)c1N | – | 0.326 µM [rising, partial curve, poor fit] | –
CC(=O)Nc1ccc(S(=O)(=O)NCC2CCC(C(=O)NCCC(C)C)CC2)cc1 (stereo not drawn) | 35.1% | 0.116 µM [rising, full curve, poor fit] | –
Cc1nn(Cc2c(F)c(F)c(F)c(F)c2F)c(C)c1NC(=O)c1nn(C)c(C)c1Br | 39.7% | 7.31 µM [rising, partial curve] | 2.59 µM [rising, full curve]
O=C(c1ccccc1)N1CCN(CC(O)COCC2CC=CCC2)CC1 (stereo not drawn) | -0.807% | – | 29.1 µM [rising, single point]
COc1ccc(Cl)cc1N(CC(=O)NCC(C)C)S(=O)(=O)c1ccc(C)c([N+](=O)[O-])c1 | 4.49% | – | 0.103 µM [falling, single point]
COc1ccc(/C=C2\SC(=S)N(CCC(=O)Nc3ccc(C(=O)O)cc3)C2=O)cc1 | -13.9% | – | 16.4 µM [falling, single point]
FC(F)Sc1nc2ccccc2[nH]1 | -3.98% | – | –
Oc1ccc(/C=N/NC2=NCCCCC2)cc1 | – | – | 14.6 µM [falling, partial curve]
COc1ccc(C(=O)N2CCN(C)C(C)C2)cc1OC1CCN(C(C)=O)CC1 (stereo not drawn) | 3.52% | 2.59 µM [rising, partial curve, poor fit] | –
O=c1cc(CN2CCCc3ccccc32)nc2sccn12 | 78.4% | 29.1 µM [rising, single point] | 16.4 µM [rising, partial curve]
CC(C)(C)c1ccc(COn2ccnc2)cc1 | -33.8% | 29.1 µM [falling, single point] | –
Cc1ccc(S(=O)(=O)ON2C(=O)c3ccccc3C2=O)c(C)c1 | -38.1% | 20.6 µM [falling, single point] | 14.6 µM [falling, partial curve]
COc1ccc(Cl)cc1NC(=S)N1CCCC1 | 6.3% | 0.291 µM [falling, single point] | 0.326 µM [falling, partial curve, poor fit]

SMILES | cell number change | AC50 [1] | AC50 [2]
CC(C)CC(C(=O)OCC(=O)Nc1ncc(Cl)cc1Cl)N1C(=O)c2ccccc2C1=O (stereo not drawn) | -34.5% | 13 µM [falling, partial curve] | –
CCCc1[nH]nc2c1C(c1ccncc1)C(C#N)=C(N)O2 (stereo not drawn) | -10.9% | – | 20.6 µM [falling, single point]
O=C(Cc1ccc(Cl)cc1)Nc1ccncc1 | -50.6% | 2.31 µM [falling, full curve] | 2.91 µM [falling, partial curve]
O=C(CCSCCc1ccccn1)Nc1ccc(Br)cn1 | 16.1% | – | 3.66 µM [rising, single point]
CCN(CC)CCCN(Cc1cc2cc(OC)ccc2[nH]c1=O)C(=O)Nc1ccccc1 | 9.44% | – | 13 µM [rising, partial curve]
CN1CCN(S(=O)(=O)c2cccc(C(=O)Oc3cccc(Br)c3)c2)CC1 | -88% | 23.1 µM [falling, partial curve] | –
O=C(COC(=O)c1cc(-c2ccco2)nc2ccccc12)NCc1ccccc1 | -13.6% | – | 0.58 µM [rising, full curve]
Cc1cc(C(=O)CN2C(=O)NC3(CCCCCC3)C2=O)c(C)n1C | 1.61% | – | –
O=C(O)/C=C/C(=O)Nc1ccccc1C(=O)Nc1ccccc1 | 18.9% | – | –
CCCCOc1ccccc1C(=O)NCC(=O)O | – | 0.206 µM [falling, full curve] | 0.184 µM [falling, full curve, poor fit]
CCC(C)NC(=O)C1CC(c2ccc(OC)cc2)=NO1 (stereo not drawn) | -27.3% | – | –
CCOc1cc2oc(=O)c3c(c2cc1Cl)CCC3 | 140% | 23.1 µM [rising, single point] | –
COc1ccc(C(=O)Nc2sc(C(=O)N(C)C)c(C)c2C#N)cc1[N+](=O)[O-] | -25% | – | 23.1 µM [falling, partial curve]
COC(=O)C1=C(C)N(CC2CCCO2)C(=O)C1 (stereo not drawn) | 1.5% | – | –
CCC1CCCCN1CCNS(=O)(=O)c1ccc2c(c1)CCN2C(C)=O (stereo not drawn) | 6.23% | – | 29.1 µM [falling, single point]
C=CCS(=O)(=O)c1nc2ccccc2s1 | -4.88% | – | 29.1 µM [rising, single point]
O=C(CCS(=O)(=O)Cc1ccccc1)Nc1nnc(C(F)(F)F)s1 | -32.4% | 0.00411 µM [falling, full curve, poor fit] | 0.206 µM [falling, single point]
COc1ccc(-c2ccc(SCC(=O)N3CCOCC3)nn2)cc1OC | -3.61% | 0.731 µM [falling, single point] | 4.61 µM [rising, full curve, poor fit]
O=C(/C=C/c1cccc([N+](=O)[O-])c1)NCCSCc1ccco1 | -35.6% | 1.64 µM [falling, full curve, poor fit] | 29.1 µM [falling, single point]
CC(C)CSc1n[nH]c(=S)s1 | 11.4% | – | –
CN1CCCN(C(=O)c2cccc3ccccc23)CC1 | 26.9% | 0.184 µM [rising, full curve, poor fit] | –

SMILES | cell number change | AC50 [1] | AC50 [2]
COc1ccc(/C=C/C(=O)NC(=S)N2CCN(C)CC2)cc1 | -0.331% | – | –
COc1ccccc1C(=O)N/N=C(\C)c1ccc(NC(=O)C2CC2)cc1 | 60.3% | 29.1 µM [rising, single point] | 29.1 µM [rising, single point]
O=C(O)C1CCN(c2ccc([N+](=O)[O-])cc2[N+](=O)[O-])CC1 | -14.4% | – | 3.26 µM [falling, full curve, poor fit]
O=C(NCCc1ccccc1Cl)C1CCC(=O)N(C2CCCCCC2)C1 (stereo not drawn) | 18.9% | 1.03 µM [rising, partial curve, poor fit] | –
OCC[C@@H]1C[C@H](O)[C@@H](O)[C@@]2(OCCc3ccccc32)O1 | 21% | – | 6.51 µM [rising, single point]
COc1ccc(C(=O)N[C@H](C(=O)Nc2ccc(OC)nc2)C(C)C)cc1 | 47% | 3.26 µM [rising, partial curve] | 4.11 µM [rising, partial curve, poor fit]
CC1(C)Oc2ccc3ccc(=O)oc3c2/C(=C/NNC(N)=S)C1=O | -13.9% | – | 0.58 µM [rising, single point]
CCc1cc(=O)[nH]c(SCC(=O)N2CCC(Cc3ccccc3)CC2)n1 | 75% | 29.1 µM [rising, single point] | –
CCN(CC(=O)NCc1cccs1)C(=O)c1ccccc1F | -5.48% | – | –
Cc1nc2sc3c(c2c(=O)o1)CCCC3 | – | – | 20.6 µM [falling, partial curve]
CCCn1c(-c2cc(OC)c(OC)c(OC)c2)nc2nc3ccccc3nc21 | -28.1% | – | –
Cc1ccc(NC(=S)NC2CCN(Cc3ccccc3)CC2)cc1 | 27.3% | – | –
COc1ccccc1N(C)S(=O)(=O)c1ccc(Cl)c(C(=O)NCCCN2CCOCC2)c1 | -1.62% | – | 20 µM [falling, single point]
CC(=O)Nc1ccc(S(=O)(=O)Oc2cccc(N3C(=O)C4CC=CCC4C3=O)c2)cc1 (stereo not drawn) | 72.7% | – | –
COc1cccc(C(=O)NC2CCCc3ccccc32)c1OC (stereo not drawn) | -0.794% | 0.461 µM [rising, single point] | 7.31 µM [falling, single point]
CCC(=O)OC1(C(=O)CCl)[C@@H](C)C[C@H]2[C@@H]3CCC4=CC(=O)C=C[C@]4(C)[C@@]3(F)[C@@H](O)C[C@@]21C (stereo partly drawn) | 32% | 0.0651 µM [rising, full curve] | 1.16 µM [rising, full curve]
CC(C)CCn1c(=O)c(C(=O)N/N=C/c2cccc(F)c2)c(O)c2ccccc21 | -5.98% | – | 0.00461 µM [rising, full curve, poor fit]
C=CCSc1ccc(S(=O)(=O)N2CCN(C)CC2)cn1 | -3.1% | 0.517 µM [falling, full curve, poor fit] | 0.103 µM [falling, full curve, poor fit]
Cc1ncc[nH]1 | 3.62% | – | 1.16 µM [rising, single point]

Whole records, quoted from the list. Order of values: cell number change	AC50 [1]	AC50 [2]
COc1ccccc1N(C)S(=O)(=O)c1ccc(Cl)c(C(=O)NCCCN2CCOCC2)c1 as listed: -1.62%	–	20 µM [falling, single point]
CCN(CC(=O)NCc1cccs1)C(=O)c1ccccc1F as listed: -5.48%	–	–

— PubChem BioAssay AID2685 (National Center for Advancing Translational Sciences (NCATS), 2010)
